For this test, the target named is γ‐tubulin (human (endogenous in MCF10A)) (UniProt P23258). Description: co-IP; 293T cells transfected with the indicated plasmids; lysis in 20 mM Tris-HCl, 150 mM NaCl, 1 mM EDTA, 1 mM EGTA, 1% NP-40, 2.5 mM sodium pyrophosphate, 10% glycerol, pH 7.5; beads 4 °C 4 h, five washes, immunoblotting. A general note: Immunoblotting shows a protein as a band on a membrane.

Chains of the proteins cited; added tags and fusions are not shown. Lines headed by an entry give the natural chain unless they say otherwise; changes in a name come on top.
UniProt P23258: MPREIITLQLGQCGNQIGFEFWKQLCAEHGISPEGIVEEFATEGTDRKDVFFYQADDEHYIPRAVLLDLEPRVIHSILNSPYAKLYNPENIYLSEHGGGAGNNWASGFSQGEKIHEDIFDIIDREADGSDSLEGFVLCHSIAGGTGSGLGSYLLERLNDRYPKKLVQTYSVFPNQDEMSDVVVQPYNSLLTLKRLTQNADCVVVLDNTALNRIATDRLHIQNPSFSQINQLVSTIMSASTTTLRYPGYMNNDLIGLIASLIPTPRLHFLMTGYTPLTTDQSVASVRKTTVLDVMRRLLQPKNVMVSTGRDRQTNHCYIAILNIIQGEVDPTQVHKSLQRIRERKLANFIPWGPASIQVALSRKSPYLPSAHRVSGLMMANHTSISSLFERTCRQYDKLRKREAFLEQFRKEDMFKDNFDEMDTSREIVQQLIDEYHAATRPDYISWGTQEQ

Results are given in words; binding and its absence hold for the method and conditions named. In cells and extracts the contact can be indirect. A result given as binding can be weak or reduced; the word gives no strength. Where a sequence is shown, tags or fusion partners need not be part of it.

B1: GFP‐CEP131 (protein, UniProt Q9UPN4 1-1083)
chain: MKGTRAIGSVPERSPAGVDLSLTGLPPPVSRRPGSAATTKPIVRSVSVVTGSEQKRKVLEATGPGGSQAINNLRRSNSTTQVSQPRSGSPRPTEPTDFLMLFEGSPSGKKRPASLSTAPSEKGATWNVLDDQPRGFTLPSNARSSSALDSPAGPRRKECTVALAPNFTANNRSNKGAVGNCVTTMVHNRYTPSERAPPLKSSNQTAPSLNNIIKAATCEGSESSGFGKLPKNVSSATHSARNNTGGSTGLPRRKEVTEEEAERFIHQVNQATVTIQRWYRHQVQRRGAGAARLEHLLQAKREEQRQRSGEGTLLDLHQQKEAARRKAREEKARQARRAAIQELQQKRALRAQKASTAERGPPENPRETRVPGMRQPAQELSPTPGGTAHQALKANNTGGGLPAAGPGDRCLPTSDSSPEPQQPPEDRTQDVLAQDAAGDNLEMMAPSRGSAKSRGPLEELLHTLQLLEKEPDVLPRPRTHHRGRYAWASEVTTEDDASSLTADNLEKFGKLSAFPEPPEDGTLLSEAKLQSIMSFLDEMEKSGQDQLDSQQEGWVPEAGPGPLELGSEVSTSVMRLKLEVEEKKQAMLLLQRALAQQRDLTARRVKETEKALSRQLQRQREHYEATIQRHLAFIDQLIEDKKVLSEKCEAVVAELKQEDQRCTERVAQAQAQHELEIKKLKELMSATEKARREKWISEKTKKIKEVTVRGLEPEIQKLIARHKQEVRRLKSLHEAELLQSDERASQRCLRQAEELREQLEREKEALGQQERERARQRFQQHLEQEQWALQQQRQRLYSEVAEERERLGQQAARQRAELEELRQQLEESSSALTRALRAEFEKGREEQERRHQMELNTLKQQLELERQAWEAGRTRKEEAWLLNREQELREEIRKGRDKEIELVIHRLEADMALAKEESEKAAESRIKRLRDKYEAELSELEQSERKLQERCSELKGQLGEAEGENLRLQGLVRQKERALEDAQAVNEQLSSERSNLAQVIRQEFEDRLAASEEETRQAKAELATLQARQQLELEEVHRRVKTALARKEEAVSSLRTQHEAAVKRADHLEELLEQHRRPTPSTK
Consider B1, for which the binding result is reported as “binds”.
